Data from article PMC7668044, “Insights into bacterial cell division from a structure of EnvC bound to the FtsX periplasmic domain” (Proceedings of the National Academy of Sciences of the …, 2020).
No constants are given. Whether binding was seen depends on the method and setting. Binding calls can cover weak binding; strength is not graded here. Tags and fused reporters may be left off the sequences shown.

Target: NlpD LytM domain, bacterial two-hybrid fusion
Assay: two-hybrid; bacterial adenylate cyclase two hybrid (BACTH) system; E. coli BTH101 cells grown on IPTG/X-gal LB plates at room temperature; coloration followed over a time course

B1: AmiC, bacterial two-hybrid fusion (enzyme, UniProt P63883 1-417)
chain: MSGSNTAISRRRLLQGAGAMWLLSVSQVSLAAVSQVVAVRVWPASSYTRVTVESNRQLKYKQFALSNPERVVVDIEDVNLNSVLKGMAAQIRADDPFIKSARVGQFDPQTVRMVFELKQNVKPQLFALAPVAGFKERLVMDLYPANAQDMQDPLLALLEDYNKGDLEKQVPPAQSGPQPGKAGRDRPIVIMLDPGHGGEDSGAVGKYKTREKDVVLQIARRLRSLIEKEGNMKVYMTRNEDIFIPLQVRVAKAQKQRADLFVSIHADAFTSRQPSGSSVFALSTKGATSTAAKYLAQTQNASDLIGGVSKSGDRYVDHTMFDMVQSLTIADSLKFGKAVLNKLGKINKLHKNQVEQAGFAVLKAPDIPSILVETAFISNVEEERKLKTATFQQEVAESILAGIKAYFADGATLARRG
binding: binds
